± gives the standard deviation of the averaged measurements. Most values lie at the level of the controls, where differences are scatter.
Key:
Experiment in all cases: level (log10 ratio to DMSO vehicle control); higher = higher biomarker level / cell amount than vehicle control
[1] = compound: C=C(C)C(=O)OCCC(F)(F)C(F)(F)C(F)(F)C(F)(F)C(F)(C(F)(F)F)C(F)(F)F [(Perfluoro-5-methylhexyl)ethyl 2-methylprop-2-enoate]; conditions: in DMSO
Procedure: (§1)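 BioMAP Diversity Plus panel of 12 human primary cell co-culture systems (3C, 4H, LPS, SAg, BT, BF4T, BE3C, CASM3C, HDF3CGF, KF3CT, MyoF, Mphg). Compounds were added 1 h before stimulation and left for 24 h (MyoF 48 h; BT 72 h for soluble read-outs or 6 d for IgG). Biomarkers were read by ELISA, cytotoxicity by SRB, PBMC viability and proliferation by Alamar Blue. Each well value was divided by the mean of 8 DMSO control wells on the same plate and log10 transformed; duplicate blinded samples were tested at 4 concentrations.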

[2] = compound: C=C(C)C(=O)OCCC(F)(F)C(F)(F)C(F)(F)C(F)(F)C(F)(F)C(F)(F)C(F)(F)C(F)(F)F [8:2 Fluorotelomer methacrylate]; conditions: in DMSO
Procedure: as §1

[3] = compound: COC(=O)CCC(F)(F)C(F)(F)C(F)(F)C(F)(F)F [Methyl 2H,2H,3H,3H-perfluoroheptanoate]; conditions: 2200 nM; in DMSO
Procedure: as §1

[4] = compound: FC(F)(F)C(F)(F)C(F)(F)C(F)(F)C(F)(F)CCI [1-Iodo-1H,1H,2H,2H-perfluoroheptane]; conditions: 2200 nM; in DMSO
Procedure: as §1

[5] = compound: NC(=O)C(F)(F)C(F)(F)C(F)(F)C(F)(F)C(N)=O [Octafluoroadipamide]; conditions: 2200 nM; in DMSO
Procedure: as §1

[6] = compound: NC(=O)C(F)(F)C(F)(F)C(F)(F)C(F)(F)F [Nonafluoropentanamide]; conditions: 2200 nM; in DMSO
Procedure: as §1

[7] = compound: NS(=O)(=O)C(F)(F)C(F)(F)C(F)(F)C(F)(F)C(F)(F)C(F)(F)F [Perfluorohexanesulfonamide]; conditions: 2200 nM; in DMSO
Procedure: as §1

[8] = compound: O=C(O)C(F)(F)C(F)(F)C(=O)O [Tetrafluorosuccinic acid]; conditions: 2200 nM; in DMSO
Procedure: as §1

[9] = compound: O=C(O)C(F)(F)C(F)(F)C(F)(F)C(F)(F)C(F)(F)C(F)(F)C(F)(F)C(F)(F)Cl [9-Chloro-perfluorononanoic acid]; conditions: in DMSO
Procedure: as §1

[10] = compound: O=C(O)CCC(F)(F)C(F)(F)C(F)(F)C(F)(F)C(F)(F)F [2H,2H,3H,3H-Perfluorooctanoic acid]; conditions: 2200 nM; in DMSO
Procedure: as §1

[11] = compound: O=S(=O)(O)C(F)(F)C(F)(F)OC(F)(F)C(F)(F)F [Perfluoro(2-ethoxyethane)sulfonic acid]; conditions: 2200 nM; in DMSO
Procedure: as §1

[12] = compound: O=S(=O)(O)CCC(F)(F)C(F)(F)C(F)(F)C(F)(F)C(F)(F)C(F)(F)F [6:2 Fluorotelomer sulfonic acid]; conditions: in DMSO
Procedure: as §1

[13] = compound: OC(C(F)(F)F)(C(F)(F)F)C(O)(C(F)(F)F)C(F)(F)F [Perfluoropinacol]; conditions: in DMSO
Procedure: as §1

[14] = compound: OCCC(F)(F)C(F)(F)C(F)(F)C(F)(F)F [4:2 Fluorotelomer alcohol]; conditions: 2200 nM; in DMSO
Procedure: as §1

| Test System | level (log10) ([1]; 740 nM) | level (log10) ([1]; 2200 nM) | level (log10) ([1]; 6700 nM) | level (log10) ([1]; 20000 nM) | level (log10) ([2]; 740 nM) | level (log10) ([2]; 2200 nM) | level (log10) [3] | level (log10) [4] | level (log10) [5] | level (log10) [6] | level (log10) [7] | level (log10) [8] | level (log10) ([9]; 2200 nM) | level (log10) ([9]; 6700 nM) | level (log10) ([9]; 20000 nM) | level (log10) [10] | level (log10) [11] | level (log10) ([12]; 2200 nM) | level (log10) ([12]; 6700 nM) | level (log10) ([12]; 20000 nM) | level (log10) ([12]; 60000 nM) | level (log10) ([13]; 2200 nM) | level (log10) ([13]; 6700 nM) | level (log10) ([13]; 20000 nM) | level (log10) [14] |
| --- | --- | --- | --- | --- | --- | --- | --- | --- | --- | --- | --- | --- | --- | --- | --- | --- | --- | --- | --- | --- | --- | --- | --- | --- | --- |
| BF4T:SRB | -0.0085 ± 0.005 | -0.008 ± 0.016 | -0.016 ± 0.011 | -0.007 ± 0.025 | 0.019 ± 0.0099 | 0.0075 ± 0.0078 | -0.004 ± 0.0057 | 0.006 ± 0.013 | 0.0025 ± 0.016 | -0.0075 ± 0.012 | 0.009 ± 0.013 | 0.0015 ± 0.005 | 0.0045 ± 0.015 | -0.013 ± 0.0071 | -0.0555 ± 0.0064 | 0.0235 ± 0.022 | 0.016 ± 0.023 | 0.0185 ± 0.026 | 0.0005 ± 0.00071 | -0.003 ± 0.0042 | -0.003 ± 0.0057 | 0.005 ± 0.018 | -0.0135 ± 0.0021 | -0.031 ± 0.0014 | 0.009 ± 0.0042 |
| SAg:CXCL9/MIG | -0.002 ± 0.013 | 0.007 ± 0.0071 | 0.002 ± 0.0085 | 0.015 ± 0.0042 | -0.001 ± 0.028 | -0.003 ± 0.0057 | -0.0125 ± 0.00071 | 0.0005 ± 0.0021 | 0.0075 ± 0.019 | 0.002 ± 0.024 | -0.0085 ± 0.0078 | -0.004 ± 0.0085 | -0.0035 ± 0.013 | -0.001 ± 0.013 | -0.0025 ± 0.0021 | -0.0025 ± 0.015 | 0.0085 ± 0.0021 | 0.003 ± 0.0057 | -0.002 ± 0.018 | -0.0035 ± 0.015 | -0.0045 ± 0.012 | 0.007 ± 0.0014 | -0.002 ± 0.0028 | -0.005 ± 0.0014 | 0.006 ± 0.013 |
| BE3C:SRB | 0.0025 ± 0.0035 | -0.005 ± 0.0099 | 0.009 ± 0.0099 | 0.0065 ± 0.016 | 0.0105 ± 0.011 | -0.0035 ± 0.0021 | 0.0005 ± 0.0021 | -0.008 ± 0.0014 | 0.011 ± 0.021 | 0 ± 0.0057 | -0.0015 ± 0.0064 | 0.004 | 0.0135 ± 0.018 | -0.0045 ± 0.0064 | -0.0805 ± 0.005 | 0.014 ± 0.017 | 0.014 ± 0.017 | 0.0115 ± 0.013 | -0.005 ± 0.0099 | -0.001 ± 0.0028 | 0.0055 ± 0.011 | 0.0105 ± 0.023 | -0.0115 ± 0.0035 | -0.0285 ± 0.00071 | 0.008 ± 0.0057 |
| BE3C:PAI-I | -0.003 ± 0.041 | 0.016 ± 0.033 | 0.007 ± 0.03 | 0.0205 ± 0.019 | 0.0135 ± 0.04 | 0.011 ± 0.051 | -0.003 ± 0.0042 | -0.0175 ± 0.011 | -0.001 ± 0.0071 | -0.0205 ± 0.016 | -0.056 ± 0.038 | 0.012 ± 0.035 | 0.011 ± 0.0071 | 0.0005 ± 0.0035 | -0.215 ± 0.017 | -0.003 ± 0.0042 | -0.013 ± 0.0071 | -0.0125 ± 0.011 | -0.005 ± 0.0014 | 0.011 ± 0.0085 | 0.0435 ± 0.016 | -0.0315 ± 0.0035 | -0.119 ± 0.016 | -0.189 ± 0.0085 | -0.002 ± 0.035 |
| BE3C:MMP-9 | -0.022 ± 0.028 | -0.017 ± 0.011 | 0.0245 ± 0.039 | 0.022 ± 0.044 | 0.0095 ± 0.047 | -0.015 ± 0.062 | 0.008 ± 0.011 | -0.003 ± 0.018 | 0.0105 ± 0.046 | -0.0105 ± 0.028 | -0.026 ± 0.0071 | -0.0065 ± 0.026 | -0.0105 ± 0.019 | 0.001 ± 0.014 | -0.04 ± 0.014 | -0.0135 ± 0.023 | 0 ± 0.014 | 0.004 ± 0.0014 | -0.004 ± 0.021 | -0.0045 ± 0.0078 | 0.016 ± 0.021 | 0.001 ± 0.011 | -0.011 ± 0.0014 | -0.04 ± 0.0028 | 0.0015 ± 0.0092 |
| CASM3C:SRB | -0.005 ± 0.0057 | 0.0025 ± 0.005 | -0.0025 ± 0.005 | -0.0095 ± 0.0035 | 0.0055 ± 0.0078 | -0.0025 ± 0.0021 | 0.001 ± 0.0071 | -0.0015 ± 0.0078 | 0.0125 ± 0.03 | 0.0055 ± 0.00071 | 0.0085 ± 0.0021 | -0.004 ± 0.0014 | -0.0015 ± 0.013 | -0.001 ± 0.0028 | 0.0045 ± 0.0078 | -0.0015 ± 0.015 | -0.001 ± 0.017 | -0.0015 ± 0.0021 | -0.004 ± 0.0028 | 0.0025 ± 0.0021 | 0.001 ± 0.0085 | -0.0025 ± 0.019 | -0.02 ± 0.0099 | -0.061 ± 0.0057 | -0.0015 ± 0.011 |
| HDF3CGF:TIMP-2 | -0.0285 ± 0.033 | 0.001 ± 0.025 | 0.0075 ± 0.026 | -0.0295 ± 0.019 | -0.028 ± 0.016 | -0.03 ± 0.0099 | 0.018 ± 0.04 | -0.0105 ± 0.049 | -0.0815 ± 0.15 | -0.041 ± 0.035 | -0.032 ± 0.025 | -0.0585 ± 0.03 | -0.009 ± 0.051 | -0.0645 ± 0.04 | -0.146 ± 0.029 | 0.0075 ± 0.074 | 0.018 ± 0.051 | 0.0215 ± 0.076 | -0.021 ± 0.0099 | -0.0205 ± 0.032 | 0.0245 ± 0.029 | -0.016 ± 0.017 | -0.0625 ± 0.005 | -0.126 ± 0.0021 | -0.02 ± 0.099 |
| 3C:CD87/uPAR | -0.0275 ± 0.0092 | -0.0135 ± 0.005 | -0.007 ± 0.0028 | -0.019 ± 0.028 | 0.0385 ± 0.0064 | 0.057 ± 0.011 | -0.02 ± 0.0028 | -0.006 ± 0.0042 | 0.0045 ± 0.021 | -0.0155 ± 0.013 | -0.0245 ± 0.0064 | -0.0145 ± 0.0021 | -0.0085 ± 0.028 | -0.013 ± 0.017 | -0.011 ± 0.038 | -0.02 ± 0.059 | 0.0205 ± 0.016 | -0.03 ± 0.071 | -0.0235 ± 0.07 | -0.0245 ± 0.023 | -0.0015 ± 0.015 | -0.056 ± 0.0057 | -0.159 ± 0.04 | -0.29 ± 0.022 | -0.006 ± 0.023 |
| SAg:CD38 | -0.004 | -0.028 ± 0.0014 | -0.011 ± 0.016 | -0.0055 ± 0.015 | 0.011 ± 0.027 | -0.012 ± 0.02 | -0.01 ± 0.016 | 0.0015 ± 0.015 | -0.0115 ± 0.0021 | -0.018 ± 0.065 | 0.0685 ± 0.047 | 0.0135 ± 0.021 | -0.009 ± 0.031 | -0.02 ± 0.021 | -0.0315 ± 0.028 | -0.0045 ± 0.044 | 0.006 ± 0.023 | 0.002 ± 0.047 | -0.0315 ± 0.012 | -0.022 ± 0.04 | -0.0505 ± 0.032 | -0.0075 ± 0.0035 | -0.012 ± 0.021 | -0.113 ± 0.023 | 0.034 ± 0.064 |
| HDF3CGF:EGFR | -0.03 ± 0.044 | -0.0545 ± 0.012 | -0.0695 ± 0.0078 | -0.0415 ± 0.0064 | -0.009 ± 0.0042 | -0.023 ± 0.042 | -0.044 ± 0.0099 | -0.089 ± 0.2 | -0.0345 ± 0.14 | -0.071 ± 0.037 | 0.0265 ± 0.0078 | 0.01 ± 0.051 | -0.0525 ± 0.063 | -0.135 ± 0.099 | -0.2 ± 0.054 | -0.0235 ± 0.04 | -0.0155 ± 0.018 | -0.039 ± 0.044 | -0.0455 ± 0.022 | -0.0535 ± 0.025 | -0.0305 ± 0.029 | -0.024 ± 0.083 | -0.029 ± 0.057 | -0.146 ± 0.038 | -0.032 ± 0.016 |

Rewritten as comma-separated lines: part of the list above.
Test System,level (log10) ([1]; 740 nM),level (log10) ([1]; 2200 nM),level (log10) ([1]; 6700 nM),level (log10) ([1]; 20000 nM),level (log10) ([2]; 740 nM),level (log10) ([2]; 2200 nM),level (log10) [3],level (log10) [4],level (log10) [5],level (log10) [6],level (log10) [7],level (log10) [8],level (log10) ([9]; 2200 nM),level (log10) ([9]; 6700 nM),level (log10) ([9]; 20000 nM),level (log10) [10],level (log10) [11],level (log10) ([12]; 2200 nM),level (log10) ([12]; 6700 nM),level (log10) ([12]; 20000 nM),level (log10) ([12]; 60000 nM),level (log10) ([13]; 2200 nM),level (log10) ([13]; 6700 nM),level (log10) ([13]; 20000 nM),level (log10) [14]
BF4T:SRB,-0.0085 ± 0.005,-0.008 ± 0.016,-0.016 ± 0.011,-0.007 ± 0.025,0.019 ± 0.0099,0.0075 ± 0.0078,-0.004 ± 0.0057,0.006 ± 0.013,0.0025 ± 0.016,-0.0075 ± 0.012,0.009 ± 0.013,0.0015 ± 0.005,0.0045 ± 0.015,-0.013 ± 0.0071,-0.0555 ± 0.0064,0.0235 ± 0.022,0.016 ± 0.023,0.0185 ± 0.026,0.0005 ± 0.00071,-0.003 ± 0.0042,-0.003 ± 0.0057,0.005 ± 0.018,-0.0135 ± 0.0021,-0.031 ± 0.0014,0.009 ± 0.0042
BE3C:PAI-I,-0.003 ± 0.041,0.016 ± 0.033,0.007 ± 0.03,0.0205 ± 0.019,0.0135 ± 0.04,0.011 ± 0.051,-0.003 ± 0.0042,-0.0175 ± 0.011,-0.001 ± 0.0071,-0.0205 ± 0.016,-0.056 ± 0.038,0.012 ± 0.035,0.011 ± 0.0071,0.0005 ± 0.0035,-0.215 ± 0.017,-0.003 ± 0.0042,-0.013 ± 0.0071,-0.0125 ± 0.011,-0.005 ± 0.0014,0.011 ± 0.0085,0.0435 ± 0.016,-0.0315 ± 0.0035,-0.119 ± 0.016,-0.189 ± 0.0085,-0.002 ± 0.035

— the supplement of paper PMC10331698
